± gives the uncertainty stated by the source. Many of these values have a large error.
Test: self-splicing fitness, log relative to wild type (ln ratio); higher = more splicing; Tetrahymena group I intron in knt gene, E. coli kanamycin selection, DiMSum; sequences stand for … in CUCUCU…GGAGGGAAAAGUUAUCAGGCAUGCACCUGGUAGCUAGUCUUUAAACCAAUAGAUUGCAUCGGUUUAAAAGGCAAGACCGUCAAAUUGCGGGAAAGGGGUCAACAGCCGUUCAGUACCAAGUCUCAGGGGAAACUUUGAGAUGGCCUUGCAAAGGGUAUGGUAAUAAGCUGACGGACAUGGUCCUAACCACGCAGCCAAGUCCUAAGUCAACAGAUCUUCUGUUGAUAUGGAUGCAGUUCACAGACUAAAUGUCGGUCGGGGAAGAUGUAUUCUUCUCAUAAGAUAUAGUCGGACCUCUCCUUAAUGGGAGCUAGCGGAUGAAGUGAUGCAACACUGGAGCCGCUGGGAACUAAUUUGUAUGCGAAAGUAUAUUGAUUAGUUUUGGAGUACUCGUGGUCG
How it was run: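 Fitness was computed with DiMSum as the error-weighted combination of replicate fold changes, kanamycin versus none, each normalised to wild type. The library randomised all eight intron nucleotides of the P1ex region, with the intron placed in the knt kanamycin-resistance gene on pET-22b(+) in E. coli BL21(DE3). Six replicate transformations were grown overnight at 37°C or 30°C on LB agar with or without 25 μg/mL kanamycin, plus 100 μg/mL carbenicillin, 50 μM IPTG and 0.2% rhamnose. Pooled colonies were amplicon-sequenced on an Illumina HiSeq 2500.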

Sequence | self-splicing fitness (ln) (30 °C) | self-splicing fitness (ln) (37 °C)
UAGGAGCAAUAUUACGCACA | -0.278 ± 0.33 | -0.212 ± 0.38
AAAGAGCAAUAUUACGCUAU | -4.95 ± 1 | 
CUGGAGCAAUAUUACGCCAG | -4.65 ± 0.59 | 
UUCGAGCAAUAUUACGAAAG |  | -3.16 ± 0.74
CAGUAGCAAUAUUACGUUGC |  | -3.97 ± 1
GGAAAGCAAUAUUACGUAGU | -2.97 ± 0.11 | -1.23 ± 0.088
GAGGAGCAAUAUUACGCGGC |  | -0.601 ± 0.82
CGGAAGCAAUAUUACGACGC | -2.39 ± 0.52 | 
UCUAAGCAAUAUUACGGAGC | -2.17 ± 0.69 | 
UCCUAGCAAUAUUACGCAUG |  | -3.22 ± 0.52
UGAGAGCAAUAUUACGUCAG | -3.98 ± 0.59 | 
GCAGAGCAAUAUUACGGAAA | -3.06 ± 0.62 | 
GAACAGCAAUAUUACGUUUG | -2.2 ± 0.067 | -0.632 ± 0.075
UGCGAGCAAUAUUACGCUCU |  | -1.55 ± 0.53
CAGGAGCAAUAUUACGAACA | -3.59 ± 0.6 | -2.16 ± 1.1
GUGAAGCAAUAUUACGAUGC | -1.65 ± 0.57 | -0.66 ± 0.5
CACUAGCAAUAUUACGGAGA | -3.66 ± 0.6 | 
GUUUAGCAAUAUUACGGAAC |  | -1.59 ± 0.56
UGAAAGCAAUAUUACGCAUC | -3.5 ± 0.73 | 
CGUUAGCAAUAUUACGCUUU | -3.86 ± 1 | 
AGUGAGCAAUAUUACGCGAG |  | -1.86 ± 0.65
CUAUAGCAAUAUUACGGGAC |  | -2.18 ± 1.1
CACAAGCAAUAUUACGAUUU | -4.17 ± 0.18 | -2.56 ± 0.15
CUAUAGCAAUAUUACGGACA | -2.77 ± 0.22 | -1.1 ± 0.29
GUUUAGCAAUAUUACGAAGC | -4.07 ± 0.52 | 
AUAUAGCAAUAUUACGAGAG | -4.7 ± 0.72 | 
CUGCAGCAAUAUUACGCCAA | -3.1 ± 0.76 | 

Sequence | self-splicing fitness (ln) (30 °C) | self-splicing fitness (ln) (37 °C)
ACAUAGCAAUAUUACGAGAG | -3.57 ± 0.28 | -2.55 ± 0.18
UUCGAGCAAUAUUACGCAUU | -4.33 ± 0.51 | 
UUUCAGCAAUAUUACGGCCC | -2.09 ± 1.4 | -1.33 ± 0.54
AGAUAGCAAUAUUACGACCC |  | 0.0449 ± 0.68
UGAUAGCAAUAUUACGCAAG | -4.42 ± 0.59 | 
GGGAAGCAAUAUUACGCGCC |  | -0.681 ± 1
AGCCAGCAAUAUUACGAAUC | -3.16 ± 1 | 
GUCUAGCAAUAUUACGAGGU | -4.1 ± 1 | 
GGGCAGCAAUAUUACGCUGC | -3.38 ± 0.77 | -2.23 ± 0.56
UAGUAGCAAUAUUACGCCGC | -4.57 ± 0.72 | -2.43 ± 0.54
GAACAGCAAUAUUACGCUGC | -4.48 ± 0.52 | 
UCUGAGCAAUAUUACGUACA | -3.01 ± 0.83 | -0.96 ± 0.68
UUUUAGCAAUAUUACGGCCG |  | 0.19 ± 0.54
CACUAGCAAUAUUACGAGAC |  | -2.31 ± 1.1
CUUGAGCAAUAUUACGCUGC |  | -2.9 ± 1.1
CAGUAGCAAUAUUACGGUGA | -4.04 ± 0.31 | -2.58 ± 0.24
CCGAAGCAAUAUUACGCAAC | -4.03 ± 0.59 | -2.63 ± 0.54
UCCGAGCAAUAUUACGUUAU | -3.95 ± 0.21 | -1.93 ± 0.19
GUCGAGCAAUAUUACGUACC | -2.42 ± 1.2 | -1.98 ± 0.81
CCGGAGCAAUAUUACGGCCA |  | -2.72 ± 0.79
UAGGAGCAAUAUUACGUAGU | -3.13 ± 0.3 | -1.81 ± 0.3
ACUCAGCAAUAUUACGGAGC | -3.55 ± 0.21 | -1.76 ± 0.17
CAAGAGCAAUAUUACGCACU |  | -3.48 ± 0.52
AGAGAGCAAUAUUACGAGAG | -4.04 ± 0.73 | 
UCUGAGCAAUAUUACGAACC | -2.02 ± 1.2 | 
AUCUAGCAAUAUUACGCCCU | -0.479 ± 0.19 | 0.46 ± 0.19
GCAUAGCAAUAUUACGUUAU | -2.61 ± 0.16 | -3.08 ± 0.27

Pulled one by one from the list above (3):
Sequence | self-splicing fitness (ln) (30 °C) | self-splicing fitness (ln) (37 °C)
UGAUAGCAAUAUUACGCAAG | -4.42 ± 0.59 | 
ACAUAGCAAUAUUACGAGAG | -3.57 ± 0.28 | -2.55 ± 0.18
GUCGAGCAAUAUUACGUACC | -2.42 ± 1.2 | -1.98 ± 0.81

Source: the supplement of paper PMC7877785
